SMILES strings stand for the structures. The match of structure and compound is tentative. Where only a bound is given, the exact number is not on record here.

Amino acid sequences for entries named in this document (tags omitted). Residues count along the entry.
UniProt Q9NRM0, 1-511 isoform 2: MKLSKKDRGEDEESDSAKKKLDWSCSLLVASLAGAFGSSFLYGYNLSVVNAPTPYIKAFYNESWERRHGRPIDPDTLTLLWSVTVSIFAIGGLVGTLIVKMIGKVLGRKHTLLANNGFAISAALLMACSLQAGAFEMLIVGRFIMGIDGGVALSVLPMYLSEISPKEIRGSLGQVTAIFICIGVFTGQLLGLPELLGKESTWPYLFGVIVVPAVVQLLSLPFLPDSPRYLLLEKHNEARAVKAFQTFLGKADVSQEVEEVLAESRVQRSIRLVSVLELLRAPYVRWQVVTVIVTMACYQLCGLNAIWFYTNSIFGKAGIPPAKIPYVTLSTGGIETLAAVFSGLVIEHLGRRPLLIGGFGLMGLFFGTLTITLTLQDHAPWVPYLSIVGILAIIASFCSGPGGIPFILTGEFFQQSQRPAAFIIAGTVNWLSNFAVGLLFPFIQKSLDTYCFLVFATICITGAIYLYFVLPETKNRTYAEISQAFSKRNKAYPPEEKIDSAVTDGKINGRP

In patent publication US20250179032A1, “HETEROCYCLIC INHIBITORS OF GLUT9 FOR TREATMENT OF DISEASE” (HORIZON THERAPEUTICS IRELAND DAC, priority 2022, published 2025) one finds IC50 data, which are given here for 1 compound.

The test concerns the target H. sapiens SLC2A9 variant 2 (GLUT9B) (Homo sapiens, UniProt Q9NRM0). In words: GLUT9 functional assay: uric acid uptake in HEK293T cells, allantoin formation by MS/MS as proxy of GLUT9B inhibition. As to conditions: read-out: 60 min IC50; 60 minute assay; HEK293T cells stably expressing GLUT9B and transiently A. oryzae uricase; uric acid 0.3 mM, 37° C. How it is done:
Uric acid stocks (9 mM, Millipore-Sigma, U0881) were generated in 125 mM choline chloride (Millipore-Sigma, C7017) and the concentration was determined at 293 nm using a molar extinction coefficient of 9600 M- ^1 cm- ^1) after collecting the absorbance spectra from 220-350 nm. Allantoin stocks (12 mM Toronto Research Chemicals, A540500) were generated in LCMS grade water (Thermo Scientific, 51140). The concentration of allantoin was determined by qNMR (Michigan State University). HEK293T cells were purchased from ATCC (HEK 293T/17 SF). Hanks buffered saline salts (HBSS) was purchased from Millipore-Sigma (H6648-1L). […]
Uric acid uptake was measured in HEK293T cells stably expressing H. sapiens SLC2A9 variant 2 (GLUT9B) and transiently expressing A. oryzae uricase. […] Allantoin was detected in positive ion mode. Desired analyte concentrations were quantitated by integrating the area under the curve followed by a log-logistic regression model and data compared to a standard curve prepared in a matching HEK293T biological matrix.
Mass spectrometry measurement of allantoin was completed using an Agilent RapidFire 300 coupled to a Sciex API 4000 mass spectrometer. […] Allantoin was detected in positive ion mode with the following compound ID settings: Q1 159, Q3 115.8, DP 57, CE 12.5 Dwell 100 ms. […]

`COCCCc1cnc(-c2ccc3c(c2)COC3=O)c(N2CCC(C(=O)O)CC2)c1` [Compound 232, 1-(5-(3-methoxypropyl)-2-(1-oxo-1,3-dihydroisobenzofuran-5-yl)pyridin-3-yl)piperidine-4-carboxylic acid]: the IC50 is greater than 2000 nM.

A word on the IC50: it is the concentration at which inhibition is half-maximal.
